# PubChem BioAssay AID1224830 – NIAID | 2016
# Assay: 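Regulators of TLR4 signalling towards TNF-alpha in macrophage-like cells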 (primary screen)
# Cell system: human THP-1 monocytic leukaemia cells, TNF dual-luciferase reporter clone, PMA-differentiated to macrophage-like cells
# Knock-down reagent: siRNA pool against human genes, 50 nM
# Time to read-out: LPS for 4 h, given about 3 days after siRNA transfection
# Treatment: bacterial LPS (TLR4 ligand), 10 ng/ml
# Read-out: 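TNF firefly reporter luminescence divided by renilla, normalised to the plate median, then turned into a robust z-score for each replicate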
# Scale: TNF reporter robust z-score: higher = stronger TNF reporter response to LPS
# Active means: 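Each well counts as active if its z-score is over 2.8 or under -1.5; controls are left without a call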
# Here is an unselected part of about 18,000 reagents. Over the whole deposit, about 2,900 (16%) were called active. 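Calls are made per well; low scores hint the gene aids the LPS response, high scores that it dampens it.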 Repeated entries: four replicate wells of each siRNA pool. No sequences are given here.
gene,TNF reporter robust z-score,activity call
APOLD1,0.52,inactive
APOLD1,1.09,inactive
APOLD1,0.13,inactive
APOLD1,0.33,inactive
BCL2L14,0,inactive
BCL2L14,-0.49,inactive
BCL2L14,-0.17,inactive
BCL2L14,-0.23,inactive
USP24,-0.66,inactive
USP24,-0.23,inactive
USP24,1.15,inactive
USP24,0.88,inactive
METTL14,-0.22,inactive
METTL14,2.24,inactive
METTL14,1.07,inactive
METTL14,1.96,inactive
NUDT1,-1.4,inactive
NUDT1,0.31,inactive
NUDT1,0.33,inactive
NUDT1,0.99,inactive
PSMC4,-1.2,inactive
PSMC4,-1.15,inactive
PSMC4,-1.09,inactive
PSMC4,-0.77,inactive
IRGC,-0.73,inactive
IRGC,-0.52,inactive
IRGC,-0.1,inactive
IRGC,-0.59,inactive
EIF2S3,-1.22,inactive
EIF2S3,-1.02,inactive
EIF2S3,-0.96,inactive
EIF2S3,-0.62,inactive
LRP1,-1.18,inactive
LRP1,-1.48,inactive
LRP1,-0.7,inactive
LRP1,-1.29,inactive
GSK3B,-0.84,inactive
GSK3B,-0.23,inactive
GSK3B,-0.94,inactive
GSK3B,-0.08,inactive
POLR2J3,-0.53,inactive
POLR2J3,-0.76,inactive
POLR2J3,-0.7,inactive
POLR2J3,-1.07,inactive
HTT,0.57,inactive
HTT,2.01,inactive
HTT,0.8,inactive
HTT,1.82,inactive
MRPL44,-0.45,inactive
MRPL44,-0.05,inactive
MRPL44,0.2,inactive
MRPL44,-0.98,inactive
EXTL1,-0.26,inactive
EXTL1,1.04,inactive
EXTL1,0.32,inactive
EXTL1,-0.31,inactive
TP53INP2,3.35,active
TP53INP2,-0.78,inactive
TP53INP2,1.96,inactive
TP53INP2,-0.68,inactive
ZC3H12B,-0.45,inactive
ZC3H12B,-0.5,inactive
ZC3H12B,-0.62,inactive
ZC3H12B,-1.14,inactive
ME2,2.17,inactive
ME2,-0.67,inactive
ME2,-0.57,inactive
ME2,-0.96,inactive
TRPM1,-1.18,inactive
TRPM1,0.11,inactive
TRPM1,-0.73,inactive
TRPM1,-0.59,inactive
FAM20C,,inactive
FAM20C,-1.1,inactive
FAM20C,-1.45,inactive
FAM20C,-1.35,inactive
ADAMTS2,0.91,inactive
ADAMTS2,2.31,inactive
ADAMTS2,1,inactive
ADAMTS2,0.63,inactive
TSGA13,1.51,inactive
TSGA13,1.5,inactive
TSGA13,0.65,inactive
TSGA13,0.84,inactive
PGAP3,-0.76,inactive
PGAP3,0.27,inactive
PGAP3,0.23,inactive
PGAP3,-0.23,inactive
ZNF69,-0.32,inactive
ZNF69,0.21,inactive
ZNF69,-0.31,inactive
ZNF69,0.25,inactive
H3C12,-1.04,inactive
H3C12,-0.38,inactive
H3C12,-0.34,inactive
H3C12,-0.29,inactive
PTGER4,0.44,inactive
PTGER4,0.89,inactive
PTGER4,1.44,inactive
PTGER4,0.01,inactive
KLK13,2.03,inactive
KLK13,1.94,inactive
KLK13,1.05,inactive
KLK13,3.21,active
SAMHD1,3.55,active
SAMHD1,3.03,active
SAMHD1,-0.04,inactive
SAMHD1,2.43,inactive
ZNF496,-0.65,inactive
ZNF496,0.09,inactive
ZNF496,1.29,inactive
ZNF496,0.19,inactive

Hits (from the list above):
gene,TNF reporter robust z-score,activity call
TP53INP2,3.35,active
KLK13,3.21,active
SAMHD1,3.55,active
SAMHD1,3.03,active
